The supplement of paper PMC10849652
This is one part of the list.

Chains of the proteins cited; added tags and fusions are not shown. Lines headed by an entry give the natural chain unless they say otherwise; changes in a name come on top.
UniProt O96017, whole entry, looked up: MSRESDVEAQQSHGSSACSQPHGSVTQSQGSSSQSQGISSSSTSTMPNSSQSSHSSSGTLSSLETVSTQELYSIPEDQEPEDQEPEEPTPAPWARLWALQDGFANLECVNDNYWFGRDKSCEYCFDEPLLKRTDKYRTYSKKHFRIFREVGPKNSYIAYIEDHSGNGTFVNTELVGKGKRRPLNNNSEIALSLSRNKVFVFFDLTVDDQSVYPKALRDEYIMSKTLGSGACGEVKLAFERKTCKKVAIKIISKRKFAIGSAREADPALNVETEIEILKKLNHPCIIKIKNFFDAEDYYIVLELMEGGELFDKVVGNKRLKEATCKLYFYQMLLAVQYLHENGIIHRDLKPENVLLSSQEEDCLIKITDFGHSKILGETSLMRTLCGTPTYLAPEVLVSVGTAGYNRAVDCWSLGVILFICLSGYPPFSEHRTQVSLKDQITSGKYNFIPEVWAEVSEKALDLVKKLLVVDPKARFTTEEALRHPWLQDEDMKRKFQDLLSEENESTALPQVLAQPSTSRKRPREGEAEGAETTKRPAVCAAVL
UniProt P23528, whole entry, looked up: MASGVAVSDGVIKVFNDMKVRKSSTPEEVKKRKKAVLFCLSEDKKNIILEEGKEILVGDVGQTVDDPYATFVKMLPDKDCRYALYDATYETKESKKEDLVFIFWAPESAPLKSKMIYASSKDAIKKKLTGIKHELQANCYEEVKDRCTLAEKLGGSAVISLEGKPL
UniProt Q9H5V8, whole entry, looked up: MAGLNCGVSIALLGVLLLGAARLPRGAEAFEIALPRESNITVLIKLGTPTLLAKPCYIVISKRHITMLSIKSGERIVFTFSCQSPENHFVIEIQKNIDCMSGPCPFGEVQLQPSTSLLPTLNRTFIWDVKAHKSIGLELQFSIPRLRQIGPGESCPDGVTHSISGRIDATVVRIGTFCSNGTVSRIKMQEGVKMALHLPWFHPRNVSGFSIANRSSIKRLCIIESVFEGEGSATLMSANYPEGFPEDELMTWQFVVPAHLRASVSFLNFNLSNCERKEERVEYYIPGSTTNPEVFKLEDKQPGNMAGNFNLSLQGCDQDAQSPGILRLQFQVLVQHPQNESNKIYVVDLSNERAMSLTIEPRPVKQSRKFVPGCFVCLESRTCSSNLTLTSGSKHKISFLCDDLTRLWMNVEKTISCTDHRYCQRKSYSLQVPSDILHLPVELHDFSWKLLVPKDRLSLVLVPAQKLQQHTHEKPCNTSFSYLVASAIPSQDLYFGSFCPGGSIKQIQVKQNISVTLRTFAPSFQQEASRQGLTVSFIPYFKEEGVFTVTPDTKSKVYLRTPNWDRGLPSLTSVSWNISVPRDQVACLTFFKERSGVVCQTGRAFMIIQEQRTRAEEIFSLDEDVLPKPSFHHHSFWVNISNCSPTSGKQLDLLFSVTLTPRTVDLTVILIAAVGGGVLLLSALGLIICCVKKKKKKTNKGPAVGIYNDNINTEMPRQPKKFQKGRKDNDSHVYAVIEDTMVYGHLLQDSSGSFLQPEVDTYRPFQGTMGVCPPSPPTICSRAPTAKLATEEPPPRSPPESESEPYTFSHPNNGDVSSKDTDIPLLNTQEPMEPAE
UniProt Q5VT25: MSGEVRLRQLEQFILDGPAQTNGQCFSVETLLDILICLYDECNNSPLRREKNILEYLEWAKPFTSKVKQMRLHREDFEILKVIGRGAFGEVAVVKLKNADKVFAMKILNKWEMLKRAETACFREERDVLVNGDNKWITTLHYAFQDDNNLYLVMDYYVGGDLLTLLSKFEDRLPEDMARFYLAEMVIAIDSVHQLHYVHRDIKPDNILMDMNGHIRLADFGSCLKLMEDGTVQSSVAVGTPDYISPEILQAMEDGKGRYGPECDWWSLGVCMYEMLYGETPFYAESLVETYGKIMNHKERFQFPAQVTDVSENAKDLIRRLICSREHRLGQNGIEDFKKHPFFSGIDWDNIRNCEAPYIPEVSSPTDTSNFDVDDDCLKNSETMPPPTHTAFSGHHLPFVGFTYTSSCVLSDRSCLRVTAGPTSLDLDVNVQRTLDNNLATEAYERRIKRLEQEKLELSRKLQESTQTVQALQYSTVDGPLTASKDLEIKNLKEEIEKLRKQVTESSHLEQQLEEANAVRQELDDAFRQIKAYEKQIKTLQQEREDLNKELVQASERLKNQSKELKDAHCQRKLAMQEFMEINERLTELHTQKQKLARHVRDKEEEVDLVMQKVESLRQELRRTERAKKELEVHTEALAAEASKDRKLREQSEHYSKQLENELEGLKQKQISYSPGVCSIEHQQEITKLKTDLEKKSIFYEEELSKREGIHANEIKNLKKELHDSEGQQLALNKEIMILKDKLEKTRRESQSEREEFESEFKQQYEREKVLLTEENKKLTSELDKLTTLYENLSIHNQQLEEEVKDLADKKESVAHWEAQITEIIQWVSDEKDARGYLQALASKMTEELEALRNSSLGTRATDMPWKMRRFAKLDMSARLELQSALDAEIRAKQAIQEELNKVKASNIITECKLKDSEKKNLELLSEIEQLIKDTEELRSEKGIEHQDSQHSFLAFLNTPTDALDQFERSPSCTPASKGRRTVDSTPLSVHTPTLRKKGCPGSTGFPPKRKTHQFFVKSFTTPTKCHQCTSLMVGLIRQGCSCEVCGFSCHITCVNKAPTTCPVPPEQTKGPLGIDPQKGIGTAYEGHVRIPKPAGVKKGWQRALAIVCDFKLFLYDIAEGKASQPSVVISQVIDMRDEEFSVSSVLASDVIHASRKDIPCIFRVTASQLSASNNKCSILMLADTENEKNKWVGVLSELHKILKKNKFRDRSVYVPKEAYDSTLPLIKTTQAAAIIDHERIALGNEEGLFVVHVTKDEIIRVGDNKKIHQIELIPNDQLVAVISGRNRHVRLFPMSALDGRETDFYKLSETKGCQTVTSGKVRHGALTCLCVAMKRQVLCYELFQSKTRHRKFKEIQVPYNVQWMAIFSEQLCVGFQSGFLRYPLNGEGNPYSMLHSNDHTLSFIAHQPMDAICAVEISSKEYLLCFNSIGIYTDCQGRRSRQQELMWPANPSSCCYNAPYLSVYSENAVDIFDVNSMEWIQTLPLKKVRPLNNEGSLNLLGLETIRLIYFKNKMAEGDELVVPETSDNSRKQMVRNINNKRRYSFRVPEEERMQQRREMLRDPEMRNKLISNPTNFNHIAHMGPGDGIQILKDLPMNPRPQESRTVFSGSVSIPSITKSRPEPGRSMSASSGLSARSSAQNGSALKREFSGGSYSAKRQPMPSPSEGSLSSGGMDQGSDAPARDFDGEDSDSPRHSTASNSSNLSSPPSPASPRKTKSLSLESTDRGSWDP
UniProt Q9Y6K0: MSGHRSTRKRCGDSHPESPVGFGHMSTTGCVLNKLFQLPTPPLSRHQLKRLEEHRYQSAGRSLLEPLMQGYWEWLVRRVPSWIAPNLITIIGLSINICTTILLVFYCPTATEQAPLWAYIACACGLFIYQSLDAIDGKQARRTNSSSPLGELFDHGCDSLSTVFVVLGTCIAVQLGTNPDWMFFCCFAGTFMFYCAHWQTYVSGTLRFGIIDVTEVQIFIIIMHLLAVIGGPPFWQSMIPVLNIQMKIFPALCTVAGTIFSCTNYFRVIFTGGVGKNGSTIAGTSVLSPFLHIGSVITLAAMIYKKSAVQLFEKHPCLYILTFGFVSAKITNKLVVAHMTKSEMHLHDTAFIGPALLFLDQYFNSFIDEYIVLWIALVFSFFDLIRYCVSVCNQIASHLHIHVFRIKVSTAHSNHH
UniProt Q9UFW8: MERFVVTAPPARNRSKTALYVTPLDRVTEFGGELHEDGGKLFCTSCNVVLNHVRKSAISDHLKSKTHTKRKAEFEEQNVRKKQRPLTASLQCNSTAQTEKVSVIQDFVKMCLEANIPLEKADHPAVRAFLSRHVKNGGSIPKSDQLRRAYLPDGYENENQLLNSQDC
UniProt Q96SZ6: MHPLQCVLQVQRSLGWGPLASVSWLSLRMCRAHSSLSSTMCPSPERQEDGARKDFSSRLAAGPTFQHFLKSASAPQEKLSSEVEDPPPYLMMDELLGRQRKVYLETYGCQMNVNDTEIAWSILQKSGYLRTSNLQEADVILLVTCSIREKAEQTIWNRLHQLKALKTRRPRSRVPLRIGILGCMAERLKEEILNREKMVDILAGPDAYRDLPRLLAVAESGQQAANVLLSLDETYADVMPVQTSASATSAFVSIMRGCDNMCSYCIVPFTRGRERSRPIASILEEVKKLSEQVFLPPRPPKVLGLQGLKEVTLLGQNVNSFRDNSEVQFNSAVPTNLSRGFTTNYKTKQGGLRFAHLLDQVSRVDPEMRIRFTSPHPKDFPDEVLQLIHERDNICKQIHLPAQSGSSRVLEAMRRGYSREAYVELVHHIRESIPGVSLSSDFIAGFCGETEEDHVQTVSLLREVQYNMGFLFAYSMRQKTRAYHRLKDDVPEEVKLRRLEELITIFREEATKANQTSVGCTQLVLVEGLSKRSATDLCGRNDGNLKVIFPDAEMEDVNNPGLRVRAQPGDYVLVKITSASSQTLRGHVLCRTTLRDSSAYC
UniProt Q96G23: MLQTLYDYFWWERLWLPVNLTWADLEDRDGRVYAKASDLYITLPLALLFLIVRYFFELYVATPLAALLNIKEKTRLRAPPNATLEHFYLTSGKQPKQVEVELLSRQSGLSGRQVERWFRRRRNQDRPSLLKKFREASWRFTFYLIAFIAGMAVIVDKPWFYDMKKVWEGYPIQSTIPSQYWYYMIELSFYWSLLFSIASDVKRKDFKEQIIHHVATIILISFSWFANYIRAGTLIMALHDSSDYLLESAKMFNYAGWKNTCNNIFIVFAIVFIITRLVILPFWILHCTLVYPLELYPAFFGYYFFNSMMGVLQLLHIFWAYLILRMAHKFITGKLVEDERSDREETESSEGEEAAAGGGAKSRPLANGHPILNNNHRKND
UniProt Q00536: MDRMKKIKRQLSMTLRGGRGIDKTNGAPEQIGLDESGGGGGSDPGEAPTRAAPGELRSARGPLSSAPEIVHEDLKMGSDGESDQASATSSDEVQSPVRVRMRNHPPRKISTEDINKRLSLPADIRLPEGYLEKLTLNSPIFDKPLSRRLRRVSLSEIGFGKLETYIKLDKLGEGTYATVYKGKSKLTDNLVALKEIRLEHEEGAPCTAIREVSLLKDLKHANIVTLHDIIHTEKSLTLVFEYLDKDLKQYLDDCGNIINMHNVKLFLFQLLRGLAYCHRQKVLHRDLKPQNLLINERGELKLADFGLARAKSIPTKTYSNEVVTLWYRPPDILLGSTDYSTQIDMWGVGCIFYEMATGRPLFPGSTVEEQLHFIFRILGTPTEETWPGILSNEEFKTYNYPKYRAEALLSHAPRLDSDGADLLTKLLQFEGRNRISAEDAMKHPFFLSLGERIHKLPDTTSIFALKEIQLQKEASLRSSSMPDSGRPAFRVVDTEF
UniProt Q96FF9: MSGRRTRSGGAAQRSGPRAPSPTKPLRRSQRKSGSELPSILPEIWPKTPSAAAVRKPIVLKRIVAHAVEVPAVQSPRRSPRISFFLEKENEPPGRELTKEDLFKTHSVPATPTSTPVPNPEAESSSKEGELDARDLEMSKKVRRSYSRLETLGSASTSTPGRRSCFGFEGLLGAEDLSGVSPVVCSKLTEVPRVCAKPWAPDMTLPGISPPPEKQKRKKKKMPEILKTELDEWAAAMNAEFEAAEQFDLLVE
UniProt Q96CF2: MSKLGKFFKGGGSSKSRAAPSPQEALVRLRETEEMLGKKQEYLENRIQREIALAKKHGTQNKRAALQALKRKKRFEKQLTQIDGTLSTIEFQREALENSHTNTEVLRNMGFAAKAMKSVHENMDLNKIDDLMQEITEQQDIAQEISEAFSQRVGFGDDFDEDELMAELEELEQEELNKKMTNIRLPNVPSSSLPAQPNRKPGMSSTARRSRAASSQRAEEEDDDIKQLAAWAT
UniProt O95319: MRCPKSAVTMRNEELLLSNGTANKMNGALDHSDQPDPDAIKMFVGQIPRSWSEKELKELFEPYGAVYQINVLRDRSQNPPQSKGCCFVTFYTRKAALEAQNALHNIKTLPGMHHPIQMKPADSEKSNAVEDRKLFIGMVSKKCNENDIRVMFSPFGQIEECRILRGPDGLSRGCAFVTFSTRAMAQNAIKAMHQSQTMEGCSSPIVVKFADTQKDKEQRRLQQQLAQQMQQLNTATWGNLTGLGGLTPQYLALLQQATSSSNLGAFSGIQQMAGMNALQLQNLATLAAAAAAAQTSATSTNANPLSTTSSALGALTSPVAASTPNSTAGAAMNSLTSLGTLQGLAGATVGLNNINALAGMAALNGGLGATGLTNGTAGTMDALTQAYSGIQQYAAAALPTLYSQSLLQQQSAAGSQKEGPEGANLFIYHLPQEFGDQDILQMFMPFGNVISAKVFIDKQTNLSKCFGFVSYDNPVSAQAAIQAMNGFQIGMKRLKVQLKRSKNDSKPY
UniProt Q99618: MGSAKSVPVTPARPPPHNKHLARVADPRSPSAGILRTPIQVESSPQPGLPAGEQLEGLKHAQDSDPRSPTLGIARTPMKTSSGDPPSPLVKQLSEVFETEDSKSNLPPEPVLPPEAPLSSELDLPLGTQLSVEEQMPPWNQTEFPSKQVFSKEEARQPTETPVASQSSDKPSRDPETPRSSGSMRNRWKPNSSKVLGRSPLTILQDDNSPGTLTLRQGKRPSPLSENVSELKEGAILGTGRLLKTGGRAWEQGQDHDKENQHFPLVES

Compound: Cn1cc(-c2ccc3c(c2)CCN3C(=O)Cc2cccc(C(F)(F)F)c2)c2c(N)ncnc21
Experiment: log2 fold change, soluble protein after heating vs DMSO (PISA); higher = thermal stabilisation; K562 cells, 10 uM, 30 min; active = over 0.2 and 3.5 SD of the protein, either way, in both replicates (recomputed)
Outline: (§1)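 K562 cells at 2×10^6 cells/mL were treated for 30 min with 10 μM compound, and aliquots were heated for 3 min over 48°C-58°C before pooling. Extraction used PBS with 0.5% NP-40 at 4°C, and soluble protein was the supernatant after 21,000xg for 90 min, measured by TMTpro 16plex LC-MS/MS with channel sums equalised. Thermal stability values, relative to control samples and from duplicates, are log2 fold changes.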

Target | log2 fold change
CHEK2 isoform 9 (UniProt O96017) | inactive: 0.054
CFL1 (UniProt P23528) | inactive: 0.025
CDCP1 (UniProt Q9H5V8) | inactive: 0.035
CDS2 (UniProt O95674) | inactive: 0.016
CDC42BPA isoform 6 (UniProt Q5VT25) | inactive: 0.036
CEPT1 (UniProt Q9Y6K0) | inactive: 0.031
CHAMP1 (UniProt Q96JM3) | inactive: 0.026
CGGBP1 (UniProt Q9UFW8) | inactive: -0.024
CDK5RAP1 (UniProt Q96SZ6) | inactive: 0.044
CERS2 (UniProt Q96G23) | inactive: -0.034
CDK16 isoform 2 (UniProt Q00536) | inactive: -0.014
CDCA5 (UniProt Q96FF9) | inactive: -0.035
CHMP4C (UniProt Q96CF2) | inactive: -0.008
CELF2 isoform 3 (UniProt O95319) | inactive: -0.022
CERS5 (UniProt Q8N5B7) | inactive: 0.013
CDCA3 (UniProt Q99618) | inactive: 0.054

Compound: Cn1cc(-c2ccc3nnc(C(F)(F)c4ccc5ncccc5c4)n3n2)cn1
Experiment: as above
Outline: as §1

Target | log2 fold change
CHIC2 (UniProt Q9UKJ5) | inactive: -0.143
CFDP1 (UniProt Q9UEE9) | inactive: 0.014
CHMP2A (UniProt O43633) | inactive: 0.027
CHD4 isoform 2 (UniProt Q14839) | inactive: -0.002
CEP76 (UniProt Q8TAP6) | inactive: 0.018
CDK5RAP3 isoform 4 (UniProt Q96JB5) | inactive: 0.024
CHKA (UniProt P35790) | inactive: -0.081
CDC73 (UniProt Q6P1J9) | inactive: -0.037
CHCHD3 (UniProt Q9NX63) | inactive: 0.037
CDKAL1 (UniProt Q5VV42) | inactive: 0.05
CDK13 (UniProt Q14004) | inactive: -0.098
CFAP20 (UniProt Q9Y6A4) | inactive: -0.053
CHD6 (UniProt Q8TD26) | inactive: 0.049
CHMP4A isoform 2 (UniProt Q9BY43) | inactive: -0.03
CHMP4B (UniProt Q9H444) | inactive: -0.013
CDK11B (UniProt P21127) | inactive: 0.228
CHMP3 (UniProt Q9Y3E7) | inactive: 0.029
CFAP298 (UniProt P57076) | inactive: -0.038
CETN2 (UniProt P41208) | inactive: 0.03
CHAC2 (UniProt Q8WUX2) | inactive: -0.006

Target | log2 fold change
CETN3 (UniProt O15182) | inactive: -0.006
CHD3 isoform 3 (UniProt Q12873) | inactive: 0.063
CFL2 (UniProt Q9Y281) | inactive: 0.028
CHEK2 isoform 9 (UniProt O96017) | inactive: -0.083
CFL1 (UniProt P23528) | inactive: -0.015
CDCP1 (UniProt Q9H5V8) | inactive: -0.047
CDS2 (UniProt O95674) | inactive: 0.002
CDC42BPA isoform 6 (UniProt Q5VT25) | inactive: 0.008
CEPT1 (UniProt Q9Y6K0) | inactive: -0.014
CHAMP1 (UniProt Q96JM3) | inactive: 0.067
CGGBP1 (UniProt Q9UFW8) | inactive: -0.053
CDK5RAP1 (UniProt Q96SZ6) | inactive: 0.017
CERS2 (UniProt Q96G23) | inactive: 0.028
CDK16 isoform 2 (UniProt Q00536) | inactive: 0.013
CDCA5 (UniProt Q96FF9) | inactive: -0.093
CHMP4C (UniProt Q96CF2) | inactive: 0.041
CELF2 isoform 3 (UniProt O95319) | inactive: -0.059
CERS5 (UniProt Q8N5B7) | inactive: 0.059
CDCA3 (UniProt Q99618) | inactive: 0.007

Compound: Cn1cncc1[C@@](N)(c1ccc(Cl)cc1)c1ccc2c(c1)c(-c1cccc(Cl)c1)cc(=O)n2C [tipifarnib]
Experiment: as above
Outline: as §1

Target | log2 fold change
CHIC2 (UniProt Q9UKJ5) | inactive: 0.012
CFDP1 (UniProt Q9UEE9) | inactive: -0.046
CHMP2A (UniProt O43633) | inactive: 0.009
CHD4 isoform 2 (UniProt Q14839) | inactive: -0.083
CEP76 (UniProt Q8TAP6) | inactive: 0.08
CDK5RAP3 isoform 4 (UniProt Q96JB5) | inactive: -0.052
CHKA (UniProt P35790) | inactive: -0.026
CDC73 (UniProt Q6P1J9) | inactive: -0.08
CHCHD3 (UniProt Q9NX63) | inactive: 0.02
CDKAL1 (UniProt Q5VV42) | inactive: 0.09
CDK13 (UniProt Q14004) | inactive: 0.069
CFAP20 (UniProt Q9Y6A4) | inactive: -0.029
CHD6 (UniProt Q8TD26) | inactive: 0.054
CHMP4A isoform 2 (UniProt Q9BY43) | inactive: 0.033
CHMP4B (UniProt Q9H444) | inactive: 0.053
CDK11B (UniProt P21127) | inactive: 0.104
CHMP3 (UniProt Q9Y3E7) | inactive: 0.007
CFAP298 (UniProt P57076) | inactive: -0.047
CETN2 (UniProt P41208) | inactive: 0.216
CHAC2 (UniProt Q8WUX2) | inactive: -0.037

Target | log2 fold change
CETN3 (UniProt O15182) | inactive: 0.086
CHD3 isoform 3 (UniProt Q12873) | inactive: -0.089
CFL2 (UniProt Q9Y281) | inactive: -0.041
CHEK2 isoform 9 (UniProt O96017) | inactive: 0.065
CFL1 (UniProt P23528) | inactive: -0.084
CDCP1 (UniProt Q9H5V8) | inactive: 0.032
CDS2 (UniProt O95674) | inactive: 0
CDC42BPA isoform 6 (UniProt Q5VT25) | inactive: -0.185
CEPT1 (UniProt Q9Y6K0) | inactive: -0.055
CHAMP1 (UniProt Q96JM3) | inactive: 0.014
CGGBP1 (UniProt Q9UFW8) | inactive: 0.066
CDK5RAP1 (UniProt Q96SZ6) | inactive: 0.031
CERS2 (UniProt Q96G23) | inactive: -0.074
CDK16 isoform 2 (UniProt Q00536) | inactive: -0.072
CDCA5 (UniProt Q96FF9) | inactive: 0.034
CHMP4C (UniProt Q96CF2) | inactive: -0.015
CELF2 isoform 3 (UniProt O95319) | inactive: -0.062
CERS5 (UniProt Q8N5B7) | inactive: 0.009
CDCA3 (UniProt Q99618) | inactive: 0.022
